Residue numbers refer to the chain shown, from its start. Results are given in words; binding and its absence hold for the method and conditions named. Binding seen in cells or lysates may run through a third protein. Some entries that bind do so weakly or less than the wild type. For some assays here: Tags and fused reporters may be left off the sequences shown.
Key:
[1] = molecular target: Tripartite Motif Containing 21 (TRIM21) (human (endogenous in human cardiac fibroblasts)) (UniProt P19474); experiment: co-IP; endogenous proteins in human cardiac fibroblast lysates (RIPA buffer); primary antibody overnight at 4 °C, protein G Sepharose beads, PBS washes, immunoblot; also after TGF-β treatment of the cells
[2] = molecular target: T1, Uridine-Cytidine Kinase Like 1 (UCKL1) (human (endogenous in human cardiac fibroblasts)) (UniProt Q9NWZ5); experiment: as above
T1 sequence: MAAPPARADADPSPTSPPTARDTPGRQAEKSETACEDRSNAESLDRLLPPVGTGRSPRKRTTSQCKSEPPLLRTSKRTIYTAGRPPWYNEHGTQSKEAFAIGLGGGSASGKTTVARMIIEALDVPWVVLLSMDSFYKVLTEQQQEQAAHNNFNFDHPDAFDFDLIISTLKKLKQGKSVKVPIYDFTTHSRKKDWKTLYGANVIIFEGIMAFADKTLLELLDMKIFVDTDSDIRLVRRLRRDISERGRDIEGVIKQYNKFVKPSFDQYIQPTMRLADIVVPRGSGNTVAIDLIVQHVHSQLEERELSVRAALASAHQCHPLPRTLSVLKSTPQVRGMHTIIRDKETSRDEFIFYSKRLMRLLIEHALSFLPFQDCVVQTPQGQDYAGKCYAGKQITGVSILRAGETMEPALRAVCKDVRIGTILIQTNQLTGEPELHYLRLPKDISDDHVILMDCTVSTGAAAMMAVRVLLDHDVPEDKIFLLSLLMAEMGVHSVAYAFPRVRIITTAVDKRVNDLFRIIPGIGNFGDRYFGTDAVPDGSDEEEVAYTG

Chains of the proteins cited; added tags and fusions are not shown.
UniProt P19474: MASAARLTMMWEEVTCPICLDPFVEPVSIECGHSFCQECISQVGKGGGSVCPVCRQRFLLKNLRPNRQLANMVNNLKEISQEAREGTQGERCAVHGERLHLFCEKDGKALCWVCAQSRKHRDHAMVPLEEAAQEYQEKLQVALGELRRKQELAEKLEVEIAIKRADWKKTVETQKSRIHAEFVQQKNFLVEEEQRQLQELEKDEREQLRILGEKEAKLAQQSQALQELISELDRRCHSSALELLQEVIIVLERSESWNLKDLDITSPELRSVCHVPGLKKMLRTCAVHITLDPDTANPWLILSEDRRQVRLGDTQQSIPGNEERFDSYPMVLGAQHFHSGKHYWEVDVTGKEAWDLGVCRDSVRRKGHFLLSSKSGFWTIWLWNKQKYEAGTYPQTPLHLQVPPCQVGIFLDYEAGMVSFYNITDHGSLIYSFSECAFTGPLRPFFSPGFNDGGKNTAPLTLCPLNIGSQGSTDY

[3] = molecular target: T2, Uridine-Cytidine Kinase Like 1 (UCKL1) of mouse heart tissue (mouse (endogenous in heart tissue)) (UniProt Q91YL3); experiment: co-IP; endogenous proteins in mouse heart tissue lysates (RIPA buffer); primary antibody overnight at 4 °C, protein G Sepharose beads, PBS washes, immunoblot; also after myocardial infarction (infarct and border zones)
T2 sequence: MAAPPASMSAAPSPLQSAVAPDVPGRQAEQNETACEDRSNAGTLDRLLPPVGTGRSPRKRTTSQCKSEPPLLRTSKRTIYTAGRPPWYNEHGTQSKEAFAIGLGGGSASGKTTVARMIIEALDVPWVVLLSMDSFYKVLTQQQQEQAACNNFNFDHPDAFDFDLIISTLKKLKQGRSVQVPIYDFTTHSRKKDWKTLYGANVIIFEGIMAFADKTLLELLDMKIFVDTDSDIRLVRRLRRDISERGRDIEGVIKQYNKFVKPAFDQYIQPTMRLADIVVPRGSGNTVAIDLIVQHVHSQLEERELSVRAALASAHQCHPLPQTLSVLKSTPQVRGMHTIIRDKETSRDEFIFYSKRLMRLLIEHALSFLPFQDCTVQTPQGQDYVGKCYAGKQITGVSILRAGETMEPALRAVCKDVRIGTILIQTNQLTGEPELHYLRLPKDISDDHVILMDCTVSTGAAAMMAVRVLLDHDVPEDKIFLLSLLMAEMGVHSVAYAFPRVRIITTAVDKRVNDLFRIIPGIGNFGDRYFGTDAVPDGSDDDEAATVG

Flag-UCKL1 = molecular target: T3, Flag-UCKL1 (UniProt Q9NWZ5); experiment: co-IP; lysates of 293 T cells transfected with Flag-UCK2 and Flag-UCKL1 plasmids; primary antibody overnight at 4 °C, protein G Sepharose beads, PBS washes, immunoblot
T3 sequence: T1 sequence

B1: Uridine-Cytidine Kinase 2 (UCK2) (protein, UniProt Q9BZX2 1-261)
chain: MAGDSEQTLQNHQQPNGGEPFLIGVSGGTASGKSSVCAKIVQLLGQNEVDYRQKQVVILSQDSFYRVLTSEQKAKALKGQFNFDHPDAFDNELILKTLKEITEGKTVQIPVYDFVSHSRKEETVTVYPADVVLFEGILAFYSQEVRDLFQMKLFVDTDADTRLSRRVLRDISERGRDLEQILSQYITFVKPAFEEFCLPTKKYADVIIPRGADNLVAINLIVQHIQDILNGGPSKRQTNGCLNGYTPSRKRQASESSSRPH
With B1 the binding [1] was “binds” and the binding [2] was “binds”.

B2: Uridine-Cytidine Kinase 2 (UCK2) of mouse heart tissue (protein, UniProt Q99PM9 1-261)
chain: B1 chain with R52H, L95F, V126I, P233L, C241Y
In the case of B2, the binding [3] is reported as “binds”.

B3: Flag-UCK2 (protein, UniProt Q9BZX2 1-261)
chain: B1 chain
In the case of B3, the binding (Flag-UCKL1) is reported as “binds”.

B4: Uridine-Cytidine Kinase Like 1 (UCKL1) (protein, UniProt Q9NWZ5 1-548)
chain: T1 sequence
For B4, the binding [1] was “binds”.
